Whole data set: some 33,000 sequences, median “E-score (-0.5 to 0.5)” near -0.0059, cut for the highest 2% near 0.26. The list shows a part of the results.
Biological target: T1, Cin5 (UniProt P40917)
T1 sequence: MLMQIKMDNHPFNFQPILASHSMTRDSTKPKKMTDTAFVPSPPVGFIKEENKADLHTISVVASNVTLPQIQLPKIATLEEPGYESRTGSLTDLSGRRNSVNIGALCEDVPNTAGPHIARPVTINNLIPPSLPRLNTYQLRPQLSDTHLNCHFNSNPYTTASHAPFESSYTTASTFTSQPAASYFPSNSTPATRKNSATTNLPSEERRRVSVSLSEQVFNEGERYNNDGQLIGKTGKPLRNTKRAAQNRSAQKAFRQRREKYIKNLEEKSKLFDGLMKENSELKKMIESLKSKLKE
Assay: PBM E-score (8-mer binding enrichment) (E-score (-0.5 to 0.5)); higher = stronger / more preferred TF binding
Details: protein concentration: 100 nM; construct: GST-full length
Method in brief: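 Yeast transcription factors, full-length or as DNA-binding domains, were expressed with a GST tag using PURExpress in vitro transcription/translation. At about 100-200 nM they were applied to universal all-10-mer Agilent arrays, double-stranded by primer extension on fresh or once-stripped slides. Fluorescent anti-GST detected bound protein, and masliner normalised the scans. E-scores for ungapped eight-base words, pooled with reverse complements, came from the Universal PBM Analysis Suite.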

Sequence	PBM E-score
ACCTCAAC	0.0171
CCATCAGA	-0.0356
CAAAGAAC	-0.0292
GTATAGAA	0.0354
AGTGATCG	0.0242
ATGAACGG	-0.0835
CTAGCGTC	-0.166
ACTGTATA	0.0678
CAACCTAA	0.108
GAAAGGCA	-0.0198
GGAGTGGA	-0.12
ATCTGTAC	0.214
CATGAAAC	0.111
ACGGCGAA	-0.00499
TACGTCCA	-0.164
GTCGACGA	-0.0261
CCCTGGTA	-0.196
ATACCATA	0.259
ACGCCCGT	0.106
CGTTGAGC	-0.0617
TGGACGAA	0.0682
CATTAAGG	0.00518
CGACACCG	-0.236
AGCTATGG	-0.0652
AAATAACT	0.226

Sequence	PBM E-score
CTGGTGCC	-0.283
TAAAATAA	0.141
CGGACTTC	-0.131
GCTCGACC	-0.178
ACAGTAAT	0.196
GGACAGTA	0.152
CTGCTTTA	0.278
CACCTGAA	0.0306
CACCTATC	0.0277
TCGGTTCA	-0.154
CTACCGGA	-0.106
ATTCTGCG	0.137
GATGCTCA	-0.0503
AATCTGGC	-0.0968
AACGAGCG	-0.0134
AAGTCGCG	0.0757
CCGTCAGA	-0.178
CCGCCGGC	0.00483
ACTGAAAC	0.243
CTTTCCCC	0.0318
ACACAAAA	0.0942
AGCTGCTG	0.022
ATGTTGTA	0.263
ACTGTGTG	-0.0399
AACCTAGT	-0.0128

Sequence	PBM E-score
ATTTTTAC	0.0248
CGTCTATA	0.102
ACAGTAGT	0.0569
GCGTAGAA	-0.0476
CACGACCC	-0.119
AAGTGTGT	-0.0443
GGAAAGGA	-0.0917
GACCTAAC	0.0765
AACGCCGG	-0.0293
CTAAACGA	0.0794
CTTCTCGA	0.0744
CATATAGA	0.171
ATCTGGTG	0.175
ATGCCCAA	-0.0408
ACGCGATC	0.24
AGTCTGAT	-0.0749
CGAGGACA	-0.0409
GAGACACC	-0.169
GCCGATGA	-0.0683
GGCTTCAC	-0.207
TAATCACA	0.222
ACGAAAGC	-0.102
ATGAACCG	-0.0498
ACCTTAAG	-0.071
CCCCGAAA	0.0433

Sequence	PBM E-score
AATCGTCG	0.14
CGACCCCC	-0.452
GAGGTCAC	-0.133
ACCGGTGG	-0.337
GGACTCAC	-0.112
CCACAGAC	-0.0305
AATGACCG	-0.152
CCGTCGAC	-0.112
CCCCAGGA	-0.307
GCTGATAC	-0.0491
ACGTTGAC	-0.0754
CAAGGCGG	-0.138
AGAAGCTA	-0.223
ATACCCAA	0.163
GTCCCCAA	-0.0799
GCAGGTAA	0.0243
AATGGCAC	0.00736
CTCGCGCA	-0.0261
ACACGCCT	-0.127
AATGCGCG	0.188
GTGGTAGA	-0.137
ATCTGCTA	0.0958
CAGCAACC	-0.0685
TACTATAA	0.333
ACTCGGAG	-0.0716

Sequence	PBM E-score
CCGCTCCG	-0.144
CAGGCGCG	-0.0492
AACGATGA	0.113
ACCCATAT	0.211
GTTTACGA	0.0113
CGAGAGCG	-0.0587
AACGCTTG	-0.119
TATCAAGA	0.164
ACCTGATC	-0.0288
ACAGAACC	-0.0371
TGTATAAA	0.114
AAACCCTC	-0.0965
GCACGGTA	-0.221
CTGACTCC	-0.13
ACGAGAAC	0.0329
CTCTTAAC	-0.047
ACATTTAA	0.17
ATGTACGC	-0.0147
ACGATATG	0.245
GCCCGCAC	0.0134
ATTCCCAC	-0.00223
AATGAGGC	-0.0978
GCAATCAC	0.054
TAGGCAAA	0.0344
AAAGGCGG	-0.104

Sequence	PBM E-score
GCACTTCC	-0.0696
CCTCCGAA	-0.207
GAACAGGC	-0.132
CTGATTGA	-0.044
AATAGCGA	0.187
AAACCACT	0.0657
GCCCGGAC	-0.273
ACTCGCTA	-0.0453
AATACCTG	0.0667
AATAGGTC	0.0429
ACCGATTA	0.256
CGTCACAG	0.0712
ATAAGCGA	0.267
ACGCACAC	-0.0238
AGTGTGAT	0.176
CGGGGAGC	-0.205
ATTGCACA	0.151
CGCACGAC	-0.171
GAGAAGTA	0.0723
AACCGTTC	0.115
AGGTGGGC	-0.218
ACCCACCT	-0.105
AGTCGAAT	-0.0202
CCTGTCAC	-0.181
ATTTCGTC	0.175

Sequence	PBM E-score
TATAACAA	0.295
CCCGAGGG	-0.255
GTGAAGTA	0.0572
AATGAGAA	0.0175
CCTGTACC	-0.146
CCGACAAC	-0.167
AACTTAGT	0.0599
ATCATGTG	0.111
CGGGATAC	-0.0343
ATAATGCG	0.153
GGCTCCCC	-0.355
ACTGATCG	-0.0818
GCCTGGGA	-0.238
AAACTACA	0.198
ACGGCAGA	0.126
CATCGAAC	0.15
CTCCCAGA	-0.289
ACAGAAGC	0.0995
GCCATGGC	-0.236
ATACGAAC	0.175
GAGGGGGA	-0.324
AGCACCCA	-0.00596

36 entries from above, bar-delimited:
Sequence | PBM E-score
AATACCTG | 0.0667
AATAGGTC | 0.0429
ACCGATTA | 0.256
CGTCACAG | 0.0712
ATAAGCGA | 0.267
ACGCACAC | -0.0238
AGTGTGAT | 0.176
CGGGGAGC | -0.205
ATTGCACA | 0.151
CGCACGAC | -0.171
GAGAAGTA | 0.0723
AACCGTTC | 0.115
AGGTGGGC | -0.218
ACCCACCT | -0.105
AGTCGAAT | -0.0202
CCTGTCAC | -0.181
ATTTCGTC | 0.175
TATAACAA | 0.295
CCCGAGGG | -0.255
GTGAAGTA | 0.0572
AATGAGAA | 0.0175
CCTGTACC | -0.146
CCGACAAC | -0.167
CGGGATAC | -0.0343
ATAATGCG | 0.153
GGCTCCCC | -0.355
GCCTGGGA | -0.238
AAACTACA | 0.198
ACGGCAGA | 0.126
CATCGAAC | 0.15
CTCCCAGA | -0.289
ACAGAAGC | 0.0995
GCCATGGC | -0.236
ATACGAAC | 0.175
GAGGGGGA | -0.324
AGCACCCA | -0.00596
